The results in this text go back to paper PMC10916322.

For the test, the target named is T1, GST-MIK1^CD (cytoplasmic region of MDIS1-… RECEPTOR LIKE KINASE1, residues 698-983) (UniProt Q9M0G7).
T1 sequence: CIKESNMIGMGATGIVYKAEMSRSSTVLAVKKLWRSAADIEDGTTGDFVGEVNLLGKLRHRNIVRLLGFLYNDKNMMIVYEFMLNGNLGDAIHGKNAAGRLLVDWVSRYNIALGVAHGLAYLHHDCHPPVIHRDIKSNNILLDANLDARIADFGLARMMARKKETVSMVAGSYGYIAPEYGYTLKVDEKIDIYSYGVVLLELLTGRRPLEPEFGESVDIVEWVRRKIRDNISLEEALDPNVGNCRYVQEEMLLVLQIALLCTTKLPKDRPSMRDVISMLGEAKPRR
The experiment in a line: pull-down; GST-MIK1 bound to GST agarose, purified His-MDIS1^CD WT added, 6 h at 4 °C in 20 mM Tris-HCl pH 7.5, 150 mM NaCl, 5% glycerol; washes with 0.3% Triton X-100, 0.1% SDS; immunoblot with anti-His and anti-GST; both purified. Background: Immunoblotting shows a protein as a band on a membrane.

Results are given in words; binding and its absence hold for the method and conditions named. Some results given as binding are weak or reduced against the parent protein; the word gives no strength. Where a sequence is shown, tags or fusion partners need not be part of it.

B1: His-MDIS1^CD wild-type (cytoplasmic region of MALE DISCOVERER1, residues 362-668) (domain or fragment, UniProt C0LGU7 362-668)
chain: RKRAVKSIGPWKTGLSGQLQKAFVTGVPKLNRSELETACEDFSNIIEAFDGYTVYKGTLSSGVEIAVASTAILETREWTRAMEMTYRRRIDTMSRVNHKNFINLIGYCEEDEPFNRMMVFEYAPNGTLFEHLHDKEMEHLDWNARTRIIMGTAYCLQYMHELNPPISHTKLVSSAIYLTDDYAAKVGEVPFSGQTGSKPRKPMSGDLDQSLLPLPPEPETNVYSFGVLMLEIISGKLSDSEEEGSILKWASKYLENDNLRDMIDPTLTTYKEEELEAICDVARHCLKLDESQRPKMKYVVQQLKEVI
With B1, the binding result is listed as “binds”.
